Experimental data: PubChem BioAssay AID504764 (Drosophila RNAi Screening Center, 2011)

Purpose: 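Knock-downs that raise or lower a Notch target reporter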 (primary screen)
System: Drosophila Kc167 cells
Reagents: long dsRNA against Drosophila genes
Timing: about 5 days (4 days dsRNA, then 24 h after transfection)
Treatment: transfection of constitutively active membrane-tethered Notch lacking the extracellular domain, read 24 h later
Read-out: 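Light from a Notch-responsive E(spl)m3 luciferase reporter under active Notch, with control-promoter and no-Notch reporter wells to normalise; raw counts from paired wells a and b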
Direction: induced reporter light, run 1, well a and induced reporter light, run 1, well b: higher = more light from the Notch target reporter with active Notch; control promoter light, run 1, well a and control promoter light, run 1, well b: higher = more light from the viral control promoter (cell number, transfection, viability); uninduced reporter light, run 1, well a: higher = more light from the Notch target reporter without active Notch
Active means: 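Hit if the duplicate-averaged log2 ratio of induced to control-promoter light gives a plate-wise z beyond ±2, or induced to uninduced beyond ±1.8; weak-control or discordant-duplicate wells dropped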
Meaning of the calls: active = modifier hit (raised or lowered Notch signal); inactive = not a hit
The screen tested about 22,000 reagents; below is an unselected part of those with a known target gene and a result. Of all reagents, 403 (1.9%) got an active call. 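Unnormalised raw counts per well; ratio z-scores behind the hit calls and whether each hit raises or lowers signal are not deposited.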 Entries without a mark were called inactive. The numbers tell different reagents against one gene apart. A plus sign joins genes that one reagent is predicted to hit. The record does not give: the amount of reagent.

Target gene | reagent | induced reporter light, run 1, well a | induced reporter light, run 1, well b | control promoter light, run 1, well a | control promoter light, run 1, well b | uninduced reporter light, run 1, well a
unc-5 | 1 | 1.88e5 | 1.66e5 | 2.56e5 | 2.80e5 | 15382
unc-5 | 2 | 93835 | 92225 | 1.26e5 | 90515 | 7418
unc-5 | 3 | 68840 | 85170 | 1.09e5 | 1.02e5 | 6655
nur | 1 | 89600 | 84305 | 1.23e5 | 1.26e5 | 6360
Jon66Ci | 1 | 1.65e5 | 1.56e5 | 1.66e5 | 1.31e5 | 5830
CG8191 | 1 | 77560 | 85330 | 88740 | 76225 | 11965
CG10395 | 1 | 2.56e5 | 2.38e5 | 1.96e5 | 2.28e5 | 18640
Vap33 | 1 | 1.88e5 | 1.80e5 | 2.69e5 | 2.72e5 | 13685
CG40006 | 1 | 76075 | 72760 | 78830 | 92210 | 8225
CG40006 | 2 | 62905 | 79465 | 83450 | 83915 | 7400
CG40006 | 3 | 64415 (active) | 55560 | 67635 | 93755 | 7100
CG40006 | 4 | 67810 (active) | 71400 | 82380 | 78650 | 9010
MED19 | 1 | 35195 | 40180 | 17125 | 18675 | 5280
CG14561 | 1 | 1.57e5 | 1.53e5 | 1.34e5 | 1.39e5 | 9900
mspo | 1 | 1.01e5 | 95380 | 1.39e5 | 1.08e5 | 8850
nopo | 1 | 97970 | 99400 | 1.82e5 | 2.25e5 | 6715
CG9932 | 1 | 1.18e5 | 1.20e5 | 1.04e5 | 1.16e5 | 9160

6 entries from above, reformatted.
| Target gene | reagent | induced reporter light, run 1, well a | induced reporter light, run 1, well b | control promoter light, run 1, well a | control promoter light, run 1, well b | uninduced reporter light, run 1, well a |
| --- | --- | --- | --- | --- | --- | --- |
| Jon66Ci | 1 | 1.65e5 | 1.56e5 | 1.66e5 | 1.31e5 | 5830 |
| CG8191 | 1 | 77560 | 85330 | 88740 | 76225 | 11965 |
| CG10395 | 1 | 2.56e5 | 2.38e5 | 1.96e5 | 2.28e5 | 18640 |
| Vap33 | 1 | 1.88e5 | 1.80e5 | 2.69e5 | 2.72e5 | 13685 |
| CG40006 | 1 | 76075 | 72760 | 78830 | 92210 | 8225 |
| CG40006 | 2 | 62905 | 79465 | 83450 | 83915 | 7400 |

Next reagents:
Target gene | reagent | induced reporter light, run 1, well a | induced reporter light, run 1, well b | control promoter light, run 1, well a | control promoter light, run 1, well b | uninduced reporter light, run 1, well a
aspr | 1 | 85985 | 1.11e5 | 1.00e5 | 1.07e5 | 9732
aspr | 2 | 94650 | 1.07e5 | 1.44e5 | 1.52e5 | 13015
CG10140 | 1 | 1.58e5 | 1.71e5 | 1.99e5 | 1.65e5 | 10280
CG9302 | 1 | 2.27e5 | 2.31e5 | 3.56e5 | 3.89e5 | 14130
Ssdp | 1 | 1.42e5 | 1.35e5 | 1.94e5 | 1.70e5 | 10060
CG4596 | 1 | 61625 | 92250 | 80115 | 76080 | 3975
CG11999 | 1 | 88685 | 1.21e5 | 1.18e5 | 79685 | 5905
Oseg6 | 1 | 39375 | 28135 | 44290 | 37130 | 3370
CG3630 | 1 | 1.60e5 | 1.47e5 | 2.42e5 | 2.64e5 | 13632
ct | 1 | 44205 | 53280 | 54935 | 53965 | 3932
Gr39a | 1 | 81975 | 91225 | 79965 | 99970 | 7895
Gr39a | 2 | 66180 | 78625 | 81225 | 95735 | 8750
IFT54 | 1 | 2.21e5 | 2.10e5 | 1.87e5 | 1.88e5 | 14050
His-Psi:CR31616 + His-Psi:CR31615 | 1 | 91745 | 79080 | 69455 | 69910 | 8215
TSG101 | 1 | 2.36e5 | 2.40e5 | 2.61e5 | 1.73e5 | 10000
Cp7Fb | 1 | 1.44e5 | 1.67e5 | 2.65e5 | 2.81e5 | 12065
CG7384 | 1 | 2.90e5 | 2.71e5 | 2.25e5 | 2.47e5 | 21800
Not10 | 1 | 1.50e5 | 1.26e5 | 1.00e5 | 94905 | 11325
Sry-beta | 1 | 1.48e5 | 1.80e5 | 2.08e5 | 2.29e5 | 10710
Hexim | 1 | 1.23e5 | 1.01e5 | 85240 | 71500 | 9265
CG2811 | 1 | 1.69e5 | 1.67e5 | 1.63e5 | 1.57e5 | 10778
Cpr67Fa2 | 1 | 1.48e5 | 1.36e5 | 2.57e5 | 2.10e5 | 8945
Sugb | 1 | 97440 | 89090 | 83505 | 39100 | 8370
CG15044 | 1 | 91645 | 78775 | 98740 | 1.01e5 | 10955
PolG1 | 1 | 1.43e5 | 1.71e5 | 1.43e5 | 1.73e5 | 12455
euc | 1 | 1.65e5 | 1.89e5 | 1.97e5 | 2.03e5 | 15100
fs(1)N | 1 | 1.51e5 | 1.56e5 | 2.30e5 | 1.88e5 | 9900
CG13123 | 1 | 1.81e5 | 1.86e5 | 1.19e5 | 1.59e5 | 22785
CG3909 | 1 | 1.31e5 | 1.86e5 | 1.46e5 | 1.06e5 | 5285
FarO | 1 | 1.21e5 | 1.05e5 | 1.74e5 | 1.72e5 | 7105
kek4 | 1 | 2.31e5 | 2.12e5 | 1.96e5 | 2.28e5 | 18135
Toll-9 | 1 | 67825 | 62325 | 90890 | 85670 | 5455
CG13050 | 1 | 1.75e5 | 1.59e5 | 2.05e5 | 2.73e5 | 9125
